The values below come from publication PMC9950529.

Chains of the proteins cited; added tags and fusions are not shown. Lines headed by an entry give the natural chain unless they say otherwise; changes in a name come on top.
UniProt Q9DC28: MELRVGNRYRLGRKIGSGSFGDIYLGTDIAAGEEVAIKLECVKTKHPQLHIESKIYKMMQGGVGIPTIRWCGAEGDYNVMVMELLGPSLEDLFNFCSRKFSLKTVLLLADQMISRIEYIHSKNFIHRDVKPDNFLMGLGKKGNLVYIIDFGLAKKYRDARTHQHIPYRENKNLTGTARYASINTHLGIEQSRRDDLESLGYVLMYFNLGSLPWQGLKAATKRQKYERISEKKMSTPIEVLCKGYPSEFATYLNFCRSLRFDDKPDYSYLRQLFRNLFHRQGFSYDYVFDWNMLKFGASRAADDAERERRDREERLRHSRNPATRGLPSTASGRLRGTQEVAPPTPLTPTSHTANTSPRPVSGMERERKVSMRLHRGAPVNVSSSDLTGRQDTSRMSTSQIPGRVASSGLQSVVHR
UniProt O54943: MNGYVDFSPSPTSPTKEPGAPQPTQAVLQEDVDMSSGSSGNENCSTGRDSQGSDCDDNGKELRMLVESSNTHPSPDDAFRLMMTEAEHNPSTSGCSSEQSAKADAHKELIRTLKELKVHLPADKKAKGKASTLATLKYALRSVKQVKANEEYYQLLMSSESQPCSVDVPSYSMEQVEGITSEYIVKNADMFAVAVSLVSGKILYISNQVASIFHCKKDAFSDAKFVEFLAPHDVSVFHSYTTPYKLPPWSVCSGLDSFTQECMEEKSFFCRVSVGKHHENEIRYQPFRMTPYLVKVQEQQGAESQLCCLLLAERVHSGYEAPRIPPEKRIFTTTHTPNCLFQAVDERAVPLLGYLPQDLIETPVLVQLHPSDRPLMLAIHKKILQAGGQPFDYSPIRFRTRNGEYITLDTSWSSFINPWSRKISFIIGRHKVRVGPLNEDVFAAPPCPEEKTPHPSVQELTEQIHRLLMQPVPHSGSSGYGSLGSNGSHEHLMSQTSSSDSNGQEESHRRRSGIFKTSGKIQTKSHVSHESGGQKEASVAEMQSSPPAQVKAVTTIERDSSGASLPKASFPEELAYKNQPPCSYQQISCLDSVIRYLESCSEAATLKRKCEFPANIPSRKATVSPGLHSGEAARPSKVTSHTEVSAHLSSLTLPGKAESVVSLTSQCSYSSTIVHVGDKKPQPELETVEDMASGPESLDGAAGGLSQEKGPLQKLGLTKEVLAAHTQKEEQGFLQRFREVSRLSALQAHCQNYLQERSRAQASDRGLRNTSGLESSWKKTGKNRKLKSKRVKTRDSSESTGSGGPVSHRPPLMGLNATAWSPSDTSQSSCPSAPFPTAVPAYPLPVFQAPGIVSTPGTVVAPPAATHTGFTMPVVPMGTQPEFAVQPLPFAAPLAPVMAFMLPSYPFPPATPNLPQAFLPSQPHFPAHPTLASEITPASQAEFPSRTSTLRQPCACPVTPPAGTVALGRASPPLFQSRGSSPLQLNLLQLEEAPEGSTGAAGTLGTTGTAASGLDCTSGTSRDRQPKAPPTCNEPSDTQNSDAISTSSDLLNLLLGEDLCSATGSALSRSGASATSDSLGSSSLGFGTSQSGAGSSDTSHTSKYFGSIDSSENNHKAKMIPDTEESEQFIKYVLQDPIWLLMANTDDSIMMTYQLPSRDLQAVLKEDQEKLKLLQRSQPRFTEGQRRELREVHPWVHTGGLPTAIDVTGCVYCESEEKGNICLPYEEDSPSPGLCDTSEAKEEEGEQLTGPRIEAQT
UniProt Q9WTL8: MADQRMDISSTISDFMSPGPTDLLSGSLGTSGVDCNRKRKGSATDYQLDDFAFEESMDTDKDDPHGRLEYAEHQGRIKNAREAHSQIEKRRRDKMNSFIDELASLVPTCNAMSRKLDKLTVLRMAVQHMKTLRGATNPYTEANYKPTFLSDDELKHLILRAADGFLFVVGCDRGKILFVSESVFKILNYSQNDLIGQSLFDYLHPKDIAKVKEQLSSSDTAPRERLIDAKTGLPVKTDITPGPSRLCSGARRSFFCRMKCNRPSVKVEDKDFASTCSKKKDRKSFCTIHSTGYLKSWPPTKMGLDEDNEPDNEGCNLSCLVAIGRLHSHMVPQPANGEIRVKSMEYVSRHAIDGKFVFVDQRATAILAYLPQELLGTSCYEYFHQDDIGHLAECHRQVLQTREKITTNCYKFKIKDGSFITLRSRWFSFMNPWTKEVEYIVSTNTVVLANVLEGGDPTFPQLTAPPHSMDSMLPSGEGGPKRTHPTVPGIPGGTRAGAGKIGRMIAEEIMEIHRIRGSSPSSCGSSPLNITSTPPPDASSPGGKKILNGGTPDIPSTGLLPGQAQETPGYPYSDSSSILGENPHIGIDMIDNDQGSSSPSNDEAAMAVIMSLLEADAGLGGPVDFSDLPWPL

Results are given in words; binding and its absence hold for the method and conditions named. For part of these data: Binding seen in cells or lysates may run through a third protein. Some entries that bind do so weakly or less than the wild type.

The target of experiment [1] is CK1δ (mouse (endogenous in mouse liver)) (UniProt Q9DC28). As to the kind of experiment: SEC; Superose 6 Increase 10/300 GL, room temperature, 10 mM Hepes pH 7.9, 200 mM KCl, 1.5 mM MgCl2, 0.1 mM EGTA, 0.1 mM EDTA, 20% glycerol; mouse liver nuclear extracts of ZT0, ZT2, ZT6, ZT12, ZT16, ZT19 after ultracentrifugation; fractions analysed by Western blot.
In experiment [2] the target is T1, CLOCK (mouse (endogenous in mouse liver)) (UniProt O08785).
T1 sequence: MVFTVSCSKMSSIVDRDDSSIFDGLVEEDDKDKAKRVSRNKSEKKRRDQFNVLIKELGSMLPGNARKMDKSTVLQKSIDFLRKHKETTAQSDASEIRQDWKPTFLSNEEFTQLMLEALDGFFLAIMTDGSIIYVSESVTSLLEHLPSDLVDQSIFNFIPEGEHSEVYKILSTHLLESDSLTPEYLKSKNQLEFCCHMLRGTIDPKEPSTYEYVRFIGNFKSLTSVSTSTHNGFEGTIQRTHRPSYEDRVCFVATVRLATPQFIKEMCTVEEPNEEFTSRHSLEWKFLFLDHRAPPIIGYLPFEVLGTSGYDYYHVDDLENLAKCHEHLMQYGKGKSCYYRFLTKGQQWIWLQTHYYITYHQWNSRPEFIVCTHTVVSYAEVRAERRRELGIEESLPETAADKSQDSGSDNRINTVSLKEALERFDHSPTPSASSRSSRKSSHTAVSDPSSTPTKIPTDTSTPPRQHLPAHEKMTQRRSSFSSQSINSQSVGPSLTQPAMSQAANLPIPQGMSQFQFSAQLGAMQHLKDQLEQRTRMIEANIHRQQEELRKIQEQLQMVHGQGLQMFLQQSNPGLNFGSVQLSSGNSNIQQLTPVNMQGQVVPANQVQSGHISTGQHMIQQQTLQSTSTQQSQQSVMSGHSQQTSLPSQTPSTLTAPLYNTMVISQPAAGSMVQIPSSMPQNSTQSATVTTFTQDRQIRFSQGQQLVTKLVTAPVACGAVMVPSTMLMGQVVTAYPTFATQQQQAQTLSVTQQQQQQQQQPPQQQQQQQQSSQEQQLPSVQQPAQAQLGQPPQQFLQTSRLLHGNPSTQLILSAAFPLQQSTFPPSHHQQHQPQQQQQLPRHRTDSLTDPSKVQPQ
The description is as above.

Experiment [3] concerns the target CK1δ (mouse (endogenous in mouse liver)) (UniProt Q9DC28). Description: co-sedimentation; 10-30% glycerol gradient (25 mM Tris pH 8.0, 100 mM NaCl, 2 mM DTT), SW60 54,000 rpm, 6 h, 4 °C; mouse liver nuclear extracts of ZT0, ZT2, ZT6, ZT12, ZT16, ZT19 mixed with reference proteins; fractions analysed by Western blot. For orientation: A western blot detects proteins with antibodies after separation by electrophoresis.

Experiment [4] concerns the target T1, CLOCK (mouse (endogenous in mouse liver)). Described as above.
Experiment [5] deals with PER2 (mouse (endogenous in mouse liver)) (UniProt O54943). Description: SEC; Superose 6 Increase 10/300 GL, room temperature, 10 mM Hepes pH 7.9, 200 mM KCl, 1.5 mM MgCl2, 0.1 mM EGTA, 0.1 mM EDTA, 20% glycerol; mouse liver nuclear extracts of ZT0, ZT2, ZT6, ZT12, ZT16, ZT19 after ultracentrifugation; fractions analysed by Western blot. A general note: Size exclusion chromatography separates by hydrodynamic size, large species first.

For experiment [6] the target is unchanged. As to the kind of experiment: co-sedimentation; 10-30% glycerol gradient (25 mM Tris pH 8.0, 100 mM NaCl, 2 mM DTT), SW60 54,000 rpm, 6 h, 4 °C; mouse liver nuclear extracts of ZT0, ZT2, ZT6, ZT12, ZT16, ZT19 mixed with reference proteins; fractions analysed by Western blot.

Consider BMAL1 (from UniProt Q9WTL8 1-632), for which the binding result in experiment [1] is on record as “no binding”; in experiment [2], “binds”; in experiment [3] it was “no binding”; in experiment [4] it was “binds”.

As for “CK1δ (from UniProt Q9DC28 1-415) (enzyme)”, the binding result in experiment [5] and in experiment [6] was “binds” each time.
